Patent publication US20160017002 (published 2016)
[ ]: non-standard residue; d: D form. The star is where a group is joined. Trt = c1ccc(C(c2ccccc2)(c2ccccc2)*)cc1; hArg = N=C(N)NCCCC[C@H](N)C(=O)O; OtBu = CC(C)(C)O*; Mpa = O=C(O)CCS

Test: general procedure: solution-phase peptide synthesis; EDAC.HCl/HOBT
Conditions: coupling step

Row | Substance | crude HPLC purity
1 | [Mpa](Trt)[hArg]GD(OtBu)WPC(Trt)-NH2 | 95%
2 | H-GD(OtBu)WPC(Trt)-NH2 | 95%
